PubChem BioAssay AID1508588 | Peter MacCallum Cancer Centre – 2020
Purpose: 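Genome-wide search for knock-downs that heighten vemurafenib action in melanoma cells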 (primary screen). Cells: human WM266.4 melanoma cells (BRAF V600 mutant). Reagents: siRNA pool against human genes, 40 nM. Time to read-out: 96 h from transfection to read-out. Challenge: vemurafenib 300 nM (about IC25), added 48 h after transfection, for 48 h; comparison arm got DMSO vehicle only. Detection: 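Cell gain (DAPI nuclei at end minus before drug, mean of two replicates) and medium lactate by absorbance per cell, both as ratio to non-targeting siRNA, also grouped into fold-change classes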. Reading the numbers: cell gain with vemurafenib: higher = more cell gain than with non-targeting siRNA; lactate per cell with vemurafenib: higher = more lactate made per cell. Hit rule: 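Enhancement is called by pairing each knock-down's vehicle-arm and drug-arm fold-change classes for viability or glycolysis; which class combinations qualify is not given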. Meaning of the calls: active = enhances vemurafenib effect; inactive = no enhancement seen.
In all, the deposit lists about 18,000 reagents; shown is a part drawn at random. Of all reagents, 790 (4.4%) are marked active. 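Calls rest on a combination of fold-change classes in drug and vehicle arms, not all shown here.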 No sequences are given here.

With knock-down of PLD4, the screen gave cell gain with vemurafenib 0.69; lactate per cell with vemurafenib 0.8; inactive.
IDI1 gave cell gain with vemurafenib 0.92; lactate per cell with vemurafenib 0.32; inactive.
Against FUOM, the entry reads cell gain with vemurafenib 1.14; lactate per cell with vemurafenib 0.7; inactive.
Against SULT2A1, the entry reads cell gain with vemurafenib 0.59; lactate per cell with vemurafenib 0.92; inactive.
For FLT4, the values are cell gain with vemurafenib -0.19; lactate per cell with vemurafenib 0.43; inactive.
For SIGLEC11, the values are cell gain with vemurafenib 0.45; lactate per cell with vemurafenib 1.24; inactive.
Silencing of WNT2 gave: cell gain with vemurafenib 0.49; lactate per cell with vemurafenib 1.27; inactive.
ATOH7 scored cell gain with vemurafenib 0.73; lactate per cell with vemurafenib 0.98; inactive.
Depletion of MYO9A gave: cell gain with vemurafenib 0.22; lactate per cell with vemurafenib 1.05; inactive.
MATN1 showed cell gain with vemurafenib 0.9; lactate per cell with vemurafenib 1.06; inactive.
After knock-down of PPP1R26, the record shows cell gain with vemurafenib 0.82; lactate per cell with vemurafenib 0.7; inactive.
Silencing of NYNRIN gave: cell gain with vemurafenib 0.17; lactate per cell with vemurafenib 2.34; inactive.
With knock-down of UBE2J2, the record shows cell gain with vemurafenib 0.37; lactate per cell with vemurafenib 0.58; active.
After knock-down of PIK3CB, the record shows cell gain with vemurafenib -0.19; lactate per cell with vemurafenib 1.58; inactive.
For KIF23 the deposit lists cell gain with vemurafenib 0.02; lactate per cell with vemurafenib 4.35; inactive.
Against SNX25 the deposit lists cell gain with vemurafenib 0.38; lactate per cell with vemurafenib 0.38; inactive.
For ZMYM3, the entry reads cell gain with vemurafenib 0.41; lactate per cell with vemurafenib 1.81; inactive.
CWC27 showed cell gain with vemurafenib 0.65; lactate per cell with vemurafenib 0.82; inactive.
Against JMJD8, the entry reads cell gain with vemurafenib 0.72; lactate per cell with vemurafenib 0.8; inactive.
Silencing of ANKRD22 resulted in: cell gain with vemurafenib 0.91; lactate per cell with vemurafenib 1.07; inactive.
After knock-down of BLM the results were cell gain with vemurafenib 0.73; lactate per cell with vemurafenib 1.5; inactive.
ZNF709 scored cell gain with vemurafenib 0.93; lactate per cell with vemurafenib 1.25; inactive.
TMX1 scored cell gain with vemurafenib 0.75; lactate per cell with vemurafenib 0.84; inactive.
With knock-down of DZIP3 the results were cell gain with vemurafenib 0.17; lactate per cell with vemurafenib 2.27; inactive.
DPM3 gave cell gain with vemurafenib 0.71; lactate per cell with vemurafenib 1.12; inactive.
Silencing of GABRR1 came out at: cell gain with vemurafenib 0.28; lactate per cell with vemurafenib 2.01; inactive.
After knock-down of PIGY, the screen gave cell gain with vemurafenib 0.37; lactate per cell with vemurafenib 1.14; inactive.
SECISBP2L scored cell gain with vemurafenib 0.89; lactate per cell with vemurafenib 0.63; inactive.
RPL36A showed cell gain with vemurafenib 0.38; lactate per cell with vemurafenib 1.07; inactive.
Depletion of UBE2I resulted in: cell gain with vemurafenib 0.11; lactate per cell with vemurafenib 0.92; inactive.
TMEM160 showed cell gain with vemurafenib 0.64; lactate per cell with vemurafenib 1.62; inactive.
GRIP2 gave cell gain with vemurafenib -0.09; lactate per cell with vemurafenib 3.42; inactive.
With knock-down of VKORC1, the record shows cell gain with vemurafenib 0.34; lactate per cell with vemurafenib 1.77; inactive.
After knock-down of OR2A4, the record shows cell gain with vemurafenib 0.84; lactate per cell with vemurafenib 1.02; inactive.
GRAMD2B scored cell gain with vemurafenib 0.3; lactate per cell with vemurafenib 1.16; inactive.
CXorf58 scored cell gain with vemurafenib 0.66; lactate per cell with vemurafenib 0.76; inactive.
RPL13 gave cell gain with vemurafenib -0.1; lactate per cell with vemurafenib 2.12; inactive.
With knock-down of TRHDE, the screen gave cell gain with vemurafenib 0.79; lactate per cell with vemurafenib 1.23; inactive.
After knock-down of CHRDL2, the screen gave cell gain with vemurafenib 1.02; lactate per cell with vemurafenib 0.53; inactive.
Against NPEPPS the deposit lists cell gain with vemurafenib 0.83; lactate per cell with vemurafenib 1.3; inactive.

As entered above:
Under “activity call”, FLT4 shows inactive
Value for CHRDL2 under “cell gain with vemurafenib”: 1.02
For “activity call”, SNX25 is entered as inactive
Entry for DZIP3 in “cell gain with vemurafenib”: 0.17
